The results in this text go back to patent publication US9087996B2, “Fluorine-containing aromatic compound and production method thereof” (Asahi Glass Company, Limited, priority 2012, dated 2015).

The nature of this series: Property evaluation of deposition-type organic semiconductor material (vacuum-deposited FET element). Conditions: vacuum-deposited film, top-contact bottom-gate FET, saturated region, under vacuum.

As for `FC(F)(F)c1c2cc3ccccc3cc2c(C(F)(F)F)c2cc3ccccc3cc12` [Compound (o)], the “Carrier mobility (field effect mobility)” value is reported as 2.1×10^−3 cm^2/V·s.

As to `FC(F)(F)c1c2ccccc2c(C(F)(F)F)c2cc3c(C(F)(F)F)c4ccccc4c(C(F)(F)F)c3cc12` [Compound (r)], the “Carrier mobility (field effect mobility)” value is listed as 4.5×10^−6 cm^2/V·s.
